# Source: patent US8551986B2, “Treatment of sequelae of psychiatric disorders” (The McLean Hospital Corporation, priority 2005, dated 2013)
# For at least one compound, name, drawing or mass did not settle the structure.
# Assay: plasma insulin and leptin after intravenous bolus of cocaine or cortisol in cocaine-dependent individuals
# Format: in vivo, human
# Settings: twelve cocaine-dependent individuals, plasma assayed over the next 120 minutes, placebo-controlled
compound,measurement,value
"COC(=O)[C@H]1[C@@H](OC(=O)c2ccccc2)C[C@@H]2CC[C@H]1N2C [Cocaine, cocaine]",plasma insulin level,significant decreases
same,plasma leptin level,not in leptin
